# Laboratory results from PMC9998637.
# Results are given in words; binding and its absence hold for the method and conditions named. In cells and extracts the contact can be indirect. Some entries that bind do so weakly or less than the wild type. Sequences can lack the tags named with a protein.
# B1: Flag-tagged TRIM3 (Tripartite-motif containing 3) (protein, UniProt O75382 1-744)
# chain: MAKREDSPGPEVQPMDKQFLVCSICLDRYQCPKVLPCLHTFCERCLQNYIPAQSLTLSCPVCRQTSILPEQGVSALQNNFFISSLMEAMQQAPDGAHDPEDPHPLSVVAGRPLSCPNHEGKTMEFYCEACETAMCGECRAGEHREHGTVLLRDVVEQHKAALQRQLEAVRGRLPQLSAAIALVGGISQQLQERKAEALAQISAAFEDLEQALQQRKQALVSDLETICGAKQKVLQSQLDTLRQGQEHIGSSCSFAEQALRLGSAPEVLLVRKHMRERLAALAAQAFPERPHENAQLELVLEVDGLRRSVLNLGALLTTSATAHETVATGEGLRQALVGQPASLTVTTKDKDGRLVRTGSAELRAEITGPDGTRLPVPVVDHKNGTYELVYTARTEGELLLSVLLYGQPVRGSPFRVRALRPGDLPPSPDDVKRRVKSPGGPGSHVRQKAVRRPSSMYSTGGKRKDNPIEDELVFRVGSRGREKGEFTNLQGVSAASSGRIVVADSNNQCIQVFSNEGQFKFRFGVRGRSPGQLQRPTGVAVDTNGDIIVADYDNRWVSIFSPEGKFKTKIGAGRLMGPKGVAVDRNGHIIVVDNKSCCVFTFQPNGKLVGRFGGRGATDRHFAGPHFVAVNNKNEIVVTDFHNHSVKVYSADGEFLFKFGSHGEGNGQFNAPTGVAVDSNGNIIVADWGNSRIQVFDSSGSFLSYINTSAEPLYGPQGLALTSDGHVVVADAGNHCFKAYRYLQ
# B2: v5-TRIM3 (protein, UniProt O75382 1-744)
# chain: B1 chain
# Molecular target: HA-tagged wtp53 (UniProt P04637)
# Experiment: co-IP; 293 T cells overexpressing TRIM3 and/or p53, lysed in HEPES buffer (50 mM HEPES pH 7.5, 150 mM NaCl, 1 mM MgCl2, 1 mM EGTA) with protease inhibitors, sonicated; extracts with antibodies against Flag and HA overnight at 4 °C, Protein A plus-Sepharose 4 h at 4 °C, five washes; western blot; the CoIP with HA-p53 constructs and v5-TRIM3 followed the same steps
row,Binder,binding
1,B1,binds
2,B2,binds
